Data source: PubChem BioAssay AID652243 (Drosophila RNAi Screening Center, 2013)

- Screen: 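Knock-downs that decrease or increase androgen receptor reporter signal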 (primary screen)
- Cells: Drosophila S2R+ cells
- Knock-down reagent: long dsRNA against Drosophila genes
- Timing: 72 h (48 h, then 24 h hormone)
- Treatment: synthetic androgen R1881 at 10 nM for 24 h
- Measurement: 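Per-well raw luminescence of the androgen-driven firefly reporter and of the Renilla control, two replicates each, without normalisation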
- Reading the numbers: firefly reporter light: higher = more light from androgen-responsive reporter; Renilla control light: higher = more constitutive control signal (cell number, transfection)
- Rule for the call: 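Across duplicate plates, a knock-down whose log firefly/Renilla ratio shifted a set fold down or up from the GFP/LacZ control mean was a hit; the downward cut appears as both 1.5 and 3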
- Calls: active = hit: reporter lowered or raised; inactive = no hit
The deposit covers about 24,000 reagents; below is an unselected part of those that have a named target and a result. Over the whole deposit, 246 (1%) got an active call. 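Plates not normalised; calls are printed but the firefly/Renilla ratio behind them is not deposited; fold cut for lowering reported inconsistently.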 Raw values vary from plate to plate and are shown uncorrected. A plus sign joins genes that one reagent is predicted to hit. The record does not give: the amount of reagent.

target	DRSC id	firefly reporter light, replicate 1	firefly reporter light, replicate 2	Renilla control light, replicate 1	Renilla control light, replicate 2	outcome
Idh3b	DRSC16040	92448	72831	5.52e5	7.41e5	inactive
Idh3b	DRSC28483	3.97e5	7.23e5	7.89e5	1.19e6	inactive
spag	DRSC04717	2.64e5	3.29e5	1.35e6	1.81e6	inactive
spag	DRSC36703					inactive
spag	DRSC36704					inactive
Socs36E	DRSC02455	2.50e5	1.99e5	2.93e6	2.26e6	active
Socs36E	DRSC27917	5.68e5	4.76e5	2.38e6	1.22e6	inactive
CCT6	DRSC20095	1.39e5	1.06e5	8.06e5	6.07e5	inactive
Den1	DRSC07195	3.50e5	2.32e5	1.86e6	1.32e6	inactive
CG6583	DRSC02972	2.89e5	2.37e5	2.01e6	1.76e6	inactive
CG6583	DRSC27517	2.96e5	2.38e5	5.39e5	7.55e5	inactive
CG4607	DRSC18375	4.27e5	6.04e5	3.05e6	3.70e6	inactive
Tsp42Eb + CG30160	DRSC04961	2.08e5	2.08e5	3.52e5	3.84e5	inactive
Tsp42Eb + CG30160	DRSC06791	4.71e5	6.31e5	2.73e6	2.84e6	inactive
per	DRSC18818	3.16e5	3.70e5	3.36e6	3.26e6	inactive
per	DRSC26579	1.93e5	2.49e5	4.96e5	4.87e5	inactive
Cpes	DRSC04475	4.84e5	7.35e5	1.19e6	1.39e6	inactive
Cpes	DRSC27503	1.82e5	1.98e5	4.94e5	7.43e5	inactive
SecS	DRSC12222	82765	94783	2.36e6	1.40e6	inactive
Bacc	DRSC27262	3.95e5	3.23e5	8.43e5	7.14e5	inactive
dsx-c73A	DRSC09435	1.34e5	1.09e5	1.37e5	1.36e5	inactive
dsx-c73A	DRSC09914	1.85e5	1.52e5	1.94e6	1.61e6	inactive
dsx-c73A	DRSC10429	3.06e5	1.92e5	3.44e6	2.49e6	inactive

A run of entries from the list above, as a working copy:
target	DRSC id	firefly reporter light, replicate 1	firefly reporter light, replicate 2	Renilla control light, replicate 1	Renilla control light, replicate 2	outcome
spag	DRSC36704					inactive
Socs36E	DRSC02455	2.50e5	1.99e5	2.93e6	2.26e6	active
Socs36E	DRSC27917	5.68e5	4.76e5	2.38e6	1.22e6	inactive
CCT6	DRSC20095	1.39e5	1.06e5	8.06e5	6.07e5	inactive
Den1	DRSC07195	3.50e5	2.32e5	1.86e6	1.32e6	inactive

Further records follow.
target	DRSC id	firefly reporter light, replicate 1	firefly reporter light, replicate 2	Renilla control light, replicate 1	Renilla control light, replicate 2	outcome
CG33773	DRSC38806	1.07e6	9.69e5	2.57e6	1.89e6	inactive
TotZ	DRSC13450	1.35e5	1.87e5	3.48e5	2.35e5	inactive
CG12857	DRSC06197	43621	1.16e5	6.74e5	6.74e5	inactive
CG12885	DRSC14572	80010	74521	1.37e6	2.55e6	inactive
CG12885	DRSC25241	8.20e5	6.50e5	1.33e6	1.38e6	inactive
rk	DRSC03602	2.13e5	2.46e5	1.94e6	2.51e6	inactive
CG10376	DRSC02049	9.62e5	1.16e6	8.66e5	1.05e6	inactive
CG10376	DRSC26744	6.20e5	5.47e5	8.18e5	7.23e5	inactive
CG10376	DRSC36846					inactive
IscU	DRSC16572	1.34e5	1.22e5	2.67e6	2.05e6	inactive
CG3226	DRSC18296	1.18e5	1.24e5	1.03e6	7.93e5	inactive
Cyp9b1	DRSC07389	3.10e5	2.90e5	1.62e6	1.23e6	inactive
Cyp9b1	DRSC24745	5.75e5	3.82e5	5.61e5	4.85e5	inactive
CG8072	DRSC10960	1.94e5	1.85e5	1.86e6	1.44e6	inactive
CG4306	DRSC10409	2.91e5	2.95e5	2.27e6	2.54e6	inactive
CG4306	DRSC28986	5.11e5	3.97e5	1.30e6	1.41e6	inactive
Mst85C	DRSC16746	1.58e5	1.45e5	2.32e6	2.35e6	inactive
Mst85C	DRSC26445	2.38e5	3.92e5	4.86e5	6.38e5	inactive
